PubChem BioAssay AID1259254, NCATS | 2017
Shown is an unselected part of about 59,000 reagents tested. Over the whole deposit, about 1,550 (2.6%) are marked active. 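G2 share is only a proxy for re-replication; each gene was hit by three separate siRNAs, and active genes were retested.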 Reagents against one gene are numbered here. Further read-outs or replicates are left out here. Not stated in the record: the amount of reagent.

Aim: 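Finding genes that stop cells copying their DNA twice in one cycle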 (primary screen)
System: human HCT116 colorectal cancer cells
Reagent: single siRNA against human genes
Timing: 3 days
Detection: 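Imaged Hoechst DNA stain sorts each cell into a cycle phase by DNA amount; per plate, G2 fraction set to 0% for non-targeting and 100% for GMNN siRNA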
Reading the numbers: G2 robust z-score: higher = more G2 cells, more excess DNA replication
Rule for the call: 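An siRNA counts as active if its G2 robust z-score lies at least 5 MADs above the screen median; here such calls match roughly 38% of GMNN control or more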

target | reagent | G2 robust z-score | call
RAB3B (RAB3B, member RAS oncogene family) | 1 | 1.87 | inactive
RAB3B (RAB3B, member RAS oncogene family) | 2 | -0.184 | inactive
RAB3B (RAB3B, member RAS oncogene family) | 3 | -0.306 | inactive
FXYD2 (FXYD domain containing ion transport regulator 2) | 1 | 0.503 | inactive
FXYD2 (FXYD domain containing ion transport regulator 2) | 2 | -0.267 | inactive
FXYD2 (FXYD domain containing ion transport regulator 2) | 3 | 5.36 | active
ABCA4 (ATP binding cassette subfamily A member 4) | 1 | 0.653 | inactive
ABCA4 (ATP binding cassette subfamily A member 4) | 2 | 1.05 | inactive
ABCA4 (ATP binding cassette subfamily A member 4) | 3 | 0.8 | inactive
USP33 (ubiquitin specific peptidase 33) | 1 | -0.69 | inactive
USP33 (ubiquitin specific peptidase 33) | 2 | 0.824 | inactive
USP33 (ubiquitin specific peptidase 33) | 3 | -0.612 | inactive
TBCB (tubulin folding cofactor B) | 1 | -0.185 | inactive
TBCB (tubulin folding cofactor B) | 2 | -0.457 | inactive
TBCB (tubulin folding cofactor B) | 3 | 4.17 | inactive
MYO1F (myosin IF) | 1 | 1.12 | inactive
MYO1F (myosin IF) | 2 | 0.231 | inactive
MYO1F (myosin IF) | 3 | 1.22 | inactive
TFDP3 (transcription factor Dp family member 3) | 1 | -0.344 | inactive
TFDP3 (transcription factor Dp family member 3) | 2 | -0.208 | inactive
TFDP3 (transcription factor Dp family member 3) | 3 | 2.25 | inactive
FNBP4 (formin binding protein 4) | 1 | 0.113 | inactive
FNBP4 (formin binding protein 4) | 2 | -0.0438 | inactive
FNBP4 (formin binding protein 4) | 3 | -0.632 | inactive
C16orf90 (chromosome 16 open reading frame 90) | 1 | 0.614 | inactive
C16orf90 (chromosome 16 open reading frame 90) | 2 | -1.28 | inactive
C16orf90 (chromosome 16 open reading frame 90) | 3 | -0.742 | inactive
SGTB | 1 | -0.242 | inactive
SGTB | 2 | -1.3 | inactive
SGTB | 3 | -0.879 | inactive
NOS2 (nitric oxide synthase 2) | 1 | 0.725 | inactive
NOS2 (nitric oxide synthase 2) | 2 | -1.01 | inactive
NOS2 (nitric oxide synthase 2) | 3 | -0.166 | inactive
SLC6A4 | 1 | 1.8 | inactive
SLC6A4 | 2 | 4.13 | inactive
SLC6A4 | 3 | 2.33 | inactive
SSU72P1 (SSU72 pseudogene 1) | 1 | 0.944 | inactive
SSU72P1 (SSU72 pseudogene 1) | 2 | 0.0383 | inactive
SSU72P1 (SSU72 pseudogene 1) | 3 | -0.668 | inactive
DMBT1L1 (deleted in malignant brain tumors 1 like 1 (pseudogene)) | 1 | 1.96 | inactive
DMBT1L1 (deleted in malignant brain tumors 1 like 1 (pseudogene)) | 2 | 0.0267 | inactive
DMBT1L1 (deleted in malignant brain tumors 1 like 1 (pseudogene)) | 3 | 2.04 | inactive
DPYSL5 (dihydropyrimidinase like 5) | 1 | -0.57 | inactive
DPYSL5 (dihydropyrimidinase like 5) | 2 | 0.264 | inactive
DPYSL5 (dihydropyrimidinase like 5) | 3 | 4.94 | inactive
DHPS (deoxyhypusine synthase) | 1 | 0.158 | inactive
DHPS (deoxyhypusine synthase) | 2 | -0.0252 | inactive
DHPS (deoxyhypusine synthase) | 3 | -1.26 | inactive
PTHLH (parathyroid hormone like hormone) | 1 | 4.66 | inactive
PTHLH (parathyroid hormone like hormone) | 2 | 1.13 | inactive
PTHLH (parathyroid hormone like hormone) | 3 | 1.48 | inactive
ATP6V1F (ATPase H+ transporting V1 subunit F) | 1 | -0.913 | inactive
ATP6V1F (ATPase H+ transporting V1 subunit F) | 2 | 3.96 | inactive
ATP6V1F (ATPase H+ transporting V1 subunit F) | 3 | 1.3 | inactive
RPS26P10 (ribosomal protein S26 pseudogene 10) | 1 | 2.34 | inactive
RPS26P10 (ribosomal protein S26 pseudogene 10) | 2 | 7.27 | active
RPS26P10 (ribosomal protein S26 pseudogene 10) | 3 | -1.33 | inactive
UCMA (upper zone of growth plate and cartilage matrix associated) | 1 | -0.0355 | inactive
UCMA (upper zone of growth plate and cartilage matrix associated) | 2 | -0.358 | inactive
UCMA (upper zone of growth plate and cartilage matrix associated) | 3 | -0.0711 | inactive
SLC40A1 | 1 | -0.366 | inactive
SLC40A1 | 2 | -0.741 | inactive
SLC40A1 | 3 | 13.3 | active
MYO6 (myosin VI) | 1 | -0.269 | inactive
MYO6 (myosin VI) | 2 | -0.106 | inactive
MYO6 (myosin VI) | 3 | 0.21 | inactive
CRIM1 (cysteine rich transmembrane BMP regulator 1) | 1 | -0.735 | inactive
CRIM1 (cysteine rich transmembrane BMP regulator 1) | 2 | 2.22 | inactive
CRIM1 (cysteine rich transmembrane BMP regulator 1) | 3 | -0.334 | inactive
PARM1 (prostate androgen-regulated mucin-like protein 1) | 1 | 0.0939 | inactive
PARM1 (prostate androgen-regulated mucin-like protein 1) | 2 | 0.579 | inactive
PARM1 (prostate androgen-regulated mucin-like protein 1) | 3 | -0.785 | inactive
ABRA (actin binding Rho activating protein) | 1 | -0.257 | inactive
ABRA (actin binding Rho activating protein) | 2 | 0.3 | inactive
ABRA (actin binding Rho activating protein) | 3 | -0.228 | inactive
CPEB1 (cytoplasmic polyadenylation element binding protein 1) | 1 | -0.86 | inactive
CPEB1 (cytoplasmic polyadenylation element binding protein 1) | 2 | -0.82 | inactive
CPEB1 (cytoplasmic polyadenylation element binding protein 1) | 3 | -0.469 | inactive
LOC643554 (ornithine aminotransferase pseudogene) | 1 | -0.0064 | inactive
LOC643554 (ornithine aminotransferase pseudogene) | 2 | -0.968 | inactive
LOC643554 (ornithine aminotransferase pseudogene) | 3 | 0.0716 | inactive
MORC1 (MORC family CW-type zinc finger 1) | 1 | 0.822 | inactive
MORC1 (MORC family CW-type zinc finger 1) | 2 | -0.712 | inactive
MORC1 (MORC family CW-type zinc finger 1) | 3 | -0.233 | inactive
RPS2P20 (ribosomal protein S2 pseudogene 20) | 1 | 3.48 | inactive
RPS2P20 (ribosomal protein S2 pseudogene 20) | 2 | 14.2 | active
RPS2P20 (ribosomal protein S2 pseudogene 20) | 3 | -0.636 | inactive

Records listed above marked active, once more:
target | reagent | G2 robust z-score | call
FXYD2 (FXYD domain containing ion transport regulator 2) | 3 | 5.36 | active
RPS26P10 (ribosomal protein S26 pseudogene 10) | 2 | 7.27 | active
SLC40A1 | 3 | 13.3 | active
RPS2P20 (ribosomal protein S2 pseudogene 20) | 2 | 14.2 | active
